According to the supplement of paper PMC10849652:
The list shows a part of the results. Residues, ends and D or L forms follow the SMILES beside them. *: point of attachment. Cbz = O=C(OCc1ccccc1)*

Sequences of proteins named here, by UniProt entry; tags and fusion partners are left off. A change or cut given only in a name is not applied to a line headed by its entry.
UniProt O75845: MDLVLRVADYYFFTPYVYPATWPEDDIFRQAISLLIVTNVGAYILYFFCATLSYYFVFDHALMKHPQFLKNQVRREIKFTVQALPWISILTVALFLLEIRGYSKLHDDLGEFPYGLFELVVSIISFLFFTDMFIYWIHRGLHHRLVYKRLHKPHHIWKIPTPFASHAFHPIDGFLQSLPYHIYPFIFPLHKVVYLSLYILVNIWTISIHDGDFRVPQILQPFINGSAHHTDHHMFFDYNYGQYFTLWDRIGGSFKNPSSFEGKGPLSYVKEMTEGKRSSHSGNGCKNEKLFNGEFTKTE
UniProt Q9NX18: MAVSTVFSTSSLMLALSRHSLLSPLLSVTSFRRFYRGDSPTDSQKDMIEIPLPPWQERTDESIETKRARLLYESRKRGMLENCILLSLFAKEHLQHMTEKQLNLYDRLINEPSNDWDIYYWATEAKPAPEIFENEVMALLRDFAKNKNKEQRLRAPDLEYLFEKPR
UniProt Q8WXD2: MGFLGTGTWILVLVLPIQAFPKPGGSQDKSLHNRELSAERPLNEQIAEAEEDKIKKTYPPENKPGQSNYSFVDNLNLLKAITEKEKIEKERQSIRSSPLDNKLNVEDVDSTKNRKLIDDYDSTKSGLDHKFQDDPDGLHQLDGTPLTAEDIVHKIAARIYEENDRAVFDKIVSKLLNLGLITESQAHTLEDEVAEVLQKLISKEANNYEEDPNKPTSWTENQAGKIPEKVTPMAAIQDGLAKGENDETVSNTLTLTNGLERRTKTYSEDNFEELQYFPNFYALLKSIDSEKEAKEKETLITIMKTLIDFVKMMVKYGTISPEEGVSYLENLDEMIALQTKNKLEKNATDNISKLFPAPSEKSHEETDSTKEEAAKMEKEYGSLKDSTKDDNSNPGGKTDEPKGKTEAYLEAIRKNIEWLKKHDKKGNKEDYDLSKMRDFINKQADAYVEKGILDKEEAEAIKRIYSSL
UniProt Q8IZE3: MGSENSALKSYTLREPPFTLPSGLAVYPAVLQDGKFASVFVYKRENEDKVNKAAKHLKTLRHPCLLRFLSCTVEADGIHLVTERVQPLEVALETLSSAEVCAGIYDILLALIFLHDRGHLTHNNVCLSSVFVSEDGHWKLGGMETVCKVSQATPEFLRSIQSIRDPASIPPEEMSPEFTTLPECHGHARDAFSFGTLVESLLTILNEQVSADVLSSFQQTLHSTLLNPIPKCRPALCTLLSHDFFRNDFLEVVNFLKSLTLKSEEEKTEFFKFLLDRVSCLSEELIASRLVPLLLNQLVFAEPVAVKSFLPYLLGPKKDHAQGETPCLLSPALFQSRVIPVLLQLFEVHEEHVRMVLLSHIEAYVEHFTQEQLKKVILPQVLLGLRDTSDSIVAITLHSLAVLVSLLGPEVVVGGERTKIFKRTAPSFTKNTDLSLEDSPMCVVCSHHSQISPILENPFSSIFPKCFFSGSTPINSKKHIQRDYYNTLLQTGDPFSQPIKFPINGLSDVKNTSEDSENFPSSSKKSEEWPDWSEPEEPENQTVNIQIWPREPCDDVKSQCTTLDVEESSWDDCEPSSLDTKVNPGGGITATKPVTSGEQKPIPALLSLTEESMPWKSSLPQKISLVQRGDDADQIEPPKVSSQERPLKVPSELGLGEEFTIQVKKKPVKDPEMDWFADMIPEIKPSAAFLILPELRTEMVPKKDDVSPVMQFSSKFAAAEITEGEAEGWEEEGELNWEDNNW
UniProt Q9BY42: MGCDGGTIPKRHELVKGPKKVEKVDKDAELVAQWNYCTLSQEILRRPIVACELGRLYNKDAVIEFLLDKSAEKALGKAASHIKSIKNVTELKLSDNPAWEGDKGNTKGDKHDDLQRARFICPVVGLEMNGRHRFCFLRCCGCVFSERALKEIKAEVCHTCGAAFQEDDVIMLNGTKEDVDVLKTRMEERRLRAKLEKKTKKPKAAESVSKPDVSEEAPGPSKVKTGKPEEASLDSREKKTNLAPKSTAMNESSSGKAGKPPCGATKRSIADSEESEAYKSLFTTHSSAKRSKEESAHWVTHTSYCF
UniProt Q7L4I2: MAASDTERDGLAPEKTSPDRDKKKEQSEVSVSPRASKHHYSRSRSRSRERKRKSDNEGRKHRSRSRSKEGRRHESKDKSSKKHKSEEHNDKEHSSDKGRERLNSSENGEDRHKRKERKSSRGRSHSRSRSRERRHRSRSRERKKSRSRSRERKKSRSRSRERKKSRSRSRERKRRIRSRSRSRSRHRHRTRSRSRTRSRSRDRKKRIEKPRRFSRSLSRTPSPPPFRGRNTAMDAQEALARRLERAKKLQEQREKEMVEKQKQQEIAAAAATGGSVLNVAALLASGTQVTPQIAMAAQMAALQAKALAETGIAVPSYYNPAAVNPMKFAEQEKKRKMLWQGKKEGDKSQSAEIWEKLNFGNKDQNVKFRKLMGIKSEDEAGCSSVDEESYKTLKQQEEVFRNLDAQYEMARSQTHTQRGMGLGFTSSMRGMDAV
UniProt Q8N9R8: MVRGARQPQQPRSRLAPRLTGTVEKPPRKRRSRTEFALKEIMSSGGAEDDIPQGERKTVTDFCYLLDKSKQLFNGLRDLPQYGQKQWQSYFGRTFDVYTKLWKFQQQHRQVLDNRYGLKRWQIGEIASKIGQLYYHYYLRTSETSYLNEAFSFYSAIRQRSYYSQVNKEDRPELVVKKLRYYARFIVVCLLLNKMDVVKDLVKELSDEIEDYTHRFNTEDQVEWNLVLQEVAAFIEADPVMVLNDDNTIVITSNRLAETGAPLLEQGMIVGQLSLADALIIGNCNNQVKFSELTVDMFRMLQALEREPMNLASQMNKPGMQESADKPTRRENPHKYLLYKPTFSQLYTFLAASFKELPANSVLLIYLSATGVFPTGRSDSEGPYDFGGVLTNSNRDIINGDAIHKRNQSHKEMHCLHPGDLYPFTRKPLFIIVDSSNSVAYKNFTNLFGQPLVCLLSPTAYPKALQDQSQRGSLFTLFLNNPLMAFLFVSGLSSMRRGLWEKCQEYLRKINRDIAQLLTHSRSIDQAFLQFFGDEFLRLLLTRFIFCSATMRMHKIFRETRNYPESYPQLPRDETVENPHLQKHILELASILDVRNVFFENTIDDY
UniProt Q01196, whole entry, looked up: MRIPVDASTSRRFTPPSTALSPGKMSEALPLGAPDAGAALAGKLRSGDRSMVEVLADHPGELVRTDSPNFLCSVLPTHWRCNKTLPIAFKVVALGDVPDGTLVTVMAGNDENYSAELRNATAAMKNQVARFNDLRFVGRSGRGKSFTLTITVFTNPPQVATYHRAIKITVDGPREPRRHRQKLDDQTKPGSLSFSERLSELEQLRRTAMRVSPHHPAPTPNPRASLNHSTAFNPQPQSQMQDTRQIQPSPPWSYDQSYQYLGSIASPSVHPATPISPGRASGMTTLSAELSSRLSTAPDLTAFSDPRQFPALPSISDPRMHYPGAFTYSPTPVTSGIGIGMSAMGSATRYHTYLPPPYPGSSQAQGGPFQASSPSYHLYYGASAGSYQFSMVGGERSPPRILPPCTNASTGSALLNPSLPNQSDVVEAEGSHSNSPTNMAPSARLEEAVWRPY
UniProt Q96IW7: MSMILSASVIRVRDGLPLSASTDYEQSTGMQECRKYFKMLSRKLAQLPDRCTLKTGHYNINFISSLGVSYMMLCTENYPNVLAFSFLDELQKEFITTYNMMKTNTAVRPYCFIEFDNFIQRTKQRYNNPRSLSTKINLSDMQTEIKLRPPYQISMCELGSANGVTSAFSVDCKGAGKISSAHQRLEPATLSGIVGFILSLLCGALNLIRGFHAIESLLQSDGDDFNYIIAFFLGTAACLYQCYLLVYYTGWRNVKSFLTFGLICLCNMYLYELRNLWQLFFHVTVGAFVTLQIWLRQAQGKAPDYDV
UniProt P26447: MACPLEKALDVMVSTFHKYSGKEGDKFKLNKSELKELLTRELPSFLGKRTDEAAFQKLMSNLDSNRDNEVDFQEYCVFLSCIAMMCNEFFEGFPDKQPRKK
UniProt Q9NTJ5: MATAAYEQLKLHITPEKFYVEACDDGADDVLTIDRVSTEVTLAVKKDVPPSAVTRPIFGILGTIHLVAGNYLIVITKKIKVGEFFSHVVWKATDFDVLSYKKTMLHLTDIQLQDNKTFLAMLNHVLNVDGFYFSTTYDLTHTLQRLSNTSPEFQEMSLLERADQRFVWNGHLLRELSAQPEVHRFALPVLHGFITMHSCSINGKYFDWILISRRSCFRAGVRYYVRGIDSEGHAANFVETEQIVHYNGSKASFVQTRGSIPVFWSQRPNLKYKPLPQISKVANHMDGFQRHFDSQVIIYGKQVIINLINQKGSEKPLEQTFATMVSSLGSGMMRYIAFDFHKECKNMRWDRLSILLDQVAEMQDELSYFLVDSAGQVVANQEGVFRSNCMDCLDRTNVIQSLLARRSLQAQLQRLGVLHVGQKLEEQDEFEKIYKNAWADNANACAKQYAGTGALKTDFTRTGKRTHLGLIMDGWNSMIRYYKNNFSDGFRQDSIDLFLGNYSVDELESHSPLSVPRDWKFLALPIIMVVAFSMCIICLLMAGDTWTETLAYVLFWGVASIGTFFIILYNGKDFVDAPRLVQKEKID
UniProt Q5PRF9: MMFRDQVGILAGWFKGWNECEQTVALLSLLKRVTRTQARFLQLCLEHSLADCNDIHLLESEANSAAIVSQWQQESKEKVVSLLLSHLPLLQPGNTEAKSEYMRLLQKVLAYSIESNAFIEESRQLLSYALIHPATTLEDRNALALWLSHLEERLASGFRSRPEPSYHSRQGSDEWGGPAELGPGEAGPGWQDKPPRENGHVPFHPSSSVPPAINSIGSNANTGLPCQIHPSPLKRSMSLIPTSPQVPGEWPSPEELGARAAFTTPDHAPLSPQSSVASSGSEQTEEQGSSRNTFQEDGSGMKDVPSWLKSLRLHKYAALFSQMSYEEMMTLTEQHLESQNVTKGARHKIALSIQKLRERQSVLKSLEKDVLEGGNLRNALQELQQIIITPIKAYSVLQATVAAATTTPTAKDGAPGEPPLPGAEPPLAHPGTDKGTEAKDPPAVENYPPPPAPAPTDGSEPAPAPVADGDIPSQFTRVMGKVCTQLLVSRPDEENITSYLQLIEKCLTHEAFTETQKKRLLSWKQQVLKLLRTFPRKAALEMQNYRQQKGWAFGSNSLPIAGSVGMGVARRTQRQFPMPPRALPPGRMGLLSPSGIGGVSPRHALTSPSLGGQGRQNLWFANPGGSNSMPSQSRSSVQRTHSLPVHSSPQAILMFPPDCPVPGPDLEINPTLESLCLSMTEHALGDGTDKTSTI
UniProt P57060: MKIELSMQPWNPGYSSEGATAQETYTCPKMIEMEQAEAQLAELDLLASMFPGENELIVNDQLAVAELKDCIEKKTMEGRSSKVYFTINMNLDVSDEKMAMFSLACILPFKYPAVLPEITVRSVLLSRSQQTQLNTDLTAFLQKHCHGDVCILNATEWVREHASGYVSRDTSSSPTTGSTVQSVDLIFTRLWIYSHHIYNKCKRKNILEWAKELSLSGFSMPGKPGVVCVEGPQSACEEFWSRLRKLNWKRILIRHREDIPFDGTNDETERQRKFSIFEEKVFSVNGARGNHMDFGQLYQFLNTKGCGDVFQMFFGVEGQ
UniProt Q96DX4: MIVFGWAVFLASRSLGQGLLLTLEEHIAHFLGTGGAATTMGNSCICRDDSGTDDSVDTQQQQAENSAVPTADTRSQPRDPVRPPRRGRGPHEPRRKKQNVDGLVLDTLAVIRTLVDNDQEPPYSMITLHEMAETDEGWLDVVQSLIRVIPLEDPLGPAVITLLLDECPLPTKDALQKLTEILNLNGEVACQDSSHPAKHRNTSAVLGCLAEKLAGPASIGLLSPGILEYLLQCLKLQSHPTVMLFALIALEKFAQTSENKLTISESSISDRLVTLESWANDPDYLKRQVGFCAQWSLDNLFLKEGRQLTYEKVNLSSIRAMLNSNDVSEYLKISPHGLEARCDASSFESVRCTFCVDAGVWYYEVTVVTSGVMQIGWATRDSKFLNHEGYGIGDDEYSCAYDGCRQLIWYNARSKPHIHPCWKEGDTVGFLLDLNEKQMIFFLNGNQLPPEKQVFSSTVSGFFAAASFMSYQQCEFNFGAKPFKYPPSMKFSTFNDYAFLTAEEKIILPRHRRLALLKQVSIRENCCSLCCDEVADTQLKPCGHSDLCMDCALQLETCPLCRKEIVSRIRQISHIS
UniProt Q7L099: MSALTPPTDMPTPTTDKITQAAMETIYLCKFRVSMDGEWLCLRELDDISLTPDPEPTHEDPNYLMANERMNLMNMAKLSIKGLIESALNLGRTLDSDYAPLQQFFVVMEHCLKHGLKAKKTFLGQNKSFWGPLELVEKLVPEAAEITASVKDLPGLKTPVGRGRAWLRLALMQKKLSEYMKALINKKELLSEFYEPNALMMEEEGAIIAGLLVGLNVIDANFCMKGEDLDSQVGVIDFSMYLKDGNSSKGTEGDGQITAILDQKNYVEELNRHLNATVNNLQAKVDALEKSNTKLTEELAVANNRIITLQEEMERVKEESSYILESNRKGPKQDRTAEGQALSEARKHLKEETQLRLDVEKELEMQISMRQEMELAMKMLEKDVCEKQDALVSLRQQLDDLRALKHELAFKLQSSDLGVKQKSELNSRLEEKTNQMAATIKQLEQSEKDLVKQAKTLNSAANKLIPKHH

What follows are targets tested with CC(C)(O)CC(=O)NCCn1ccc2ncnc(Nc3ccc(Oc4cccc(C(F)(F)F)c4)c(Cl)c3)c21 (assay: log2 fold change, soluble protein after heating vs DMSO (PISA); higher = thermal stabilisation; K562 cells, 10 uM, 30 min; active = over 0.2 and 3.5 SD of the protein, either way, in both replicates (recomputed)).
Outline: (§1)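 Quantification of soluble protein used TMTpro 16plex LC-MS/MS, with channel sums equalised. Samples were the supernatant after 21,000xg for 90 min of pooled aliquots from K562 cells (2×10^6 cells/mL) treated with 10 μM compound for 30 min, heated for 3 min over 48°C-58°C, and extracted in PBS with 0.5% NP-40 at 4°C. Values, from duplicates, describe thermal stability against control samples on a log2 fold-change scale.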
For SC5D (UniProt O75845), the log2 fold change was inactive: 0.014. In the case of RSL24D1 (UniProt Q9UHA3), the log2 fold change is reported as inactive: 0.104. For SDHAF2 (UniProt Q9NX18), the log2 fold change was inactive: -0.011. With RTN4 isoform 5 (UniProt Q9NQC3) the log2 fold change was inactive: 0.05.

These targets were tested with CC(C)C1=C2N=C(C=C(N2N=C1)NCC3=CC=CC=C3)NCCCCCCN in the same assay as above.
Outline: as §1
For RRP36 (UniProt Q96EU6), the log2 fold change was inactive: 0.044. For SCAMP2 (UniProt H3BUB6), the log2 fold change was inactive: -0.055. For SDHD (UniProt O14521), the log2 fold change was inactive: -0.01. For SCG3 (UniProt Q8WXD2), the log2 fold change was inactive: 0.203. For SCYL3 isoform 2 (UniProt Q8IZE3), the log2 fold change was inactive: -0.052. In the case of SCAMP2 (UniProt O15127), the log2 fold change is reported as inactive: 0.003. For SDHB, A0A087WXX8, the log2 fold change was inactive: 0.009. SDR39U1 (UniProt Q9NRG7) was tested, and the log2 fold change was inactive: -0.707. For RTF2 (UniProt Q9BY42), the log2 fold change was inactive: 0.164. SDCCAG8 (UniProt Q86SQ7) was tested, and the log2 fold change was inactive: 0.03. In the case of SDHAF4 (UniProt Q5VUM1), the log2 fold change is reported as inactive: 0.149. For RSRC2 (UniProt Q7L4I2), the log2 fold change was inactive: -0.013. For SCAI isoform 2 (UniProt Q8N9R8), the log2 fold change was inactive: -0.081. With SCGB1D2 (UniProt O95969) the log2 fold change was inactive: -0.098. In the case of RUNX1 isoform 8 (UniProt Q01196), the log2 fold change is reported as inactive: -0.184. For SEC22A (UniProt Q96IW7), the log2 fold change was inactive: 0.158. In the case of S100A4 (UniProt P26447), the log2 fold change is reported as inactive: -0.159. SACM1L (UniProt Q9NTJ5) was tested, and the log2 fold change was active: -0.262. RSF1 (UniProt Q96T23) was tested, and the log2 fold change was inactive: -0.114. SAMD4B (UniProt Q5PRF9) was tested, and the log2 fold change was inactive: 0.142. With SAP30 (UniProt O75446) the log2 fold change was inactive: 0.111. With SDHB, A0A087WWT1 the log2 fold change was inactive: 0.142. For S100A2 (UniProt P29034), the log2 fold change was inactive: 0.113. For RWDD2B (UniProt P57060), the log2 fold change was inactive: -0.216. In the case of SCAF4 (UniProt O95104), the log2 fold change is reported as inactive: -0.2. RSPRY1 (UniProt Q96DX4) was tested, and the log2 fold change was inactive: 0. In the case of S100A14 (UniProt Q9HCY8), the log2 fold change is reported as inactive: -0.002. In the case of SC5D (UniProt O75845), the log2 fold change is reported as inactive: 0.047. For RSL24D1 (UniProt Q9UHA3), the log2 fold change was inactive: 0.235. With SDHAF2 (UniProt Q9NX18) the log2 fold change was inactive: -0.042. For RUFY3 isoform 3 (UniProt Q7L099), the log2 fold change was inactive: -0.098. RTN4 isoform 5 (UniProt Q9NQC3) was tested, and the log2 fold change was inactive: -0.097.

What follows are targets tested with CC(C)C[C@@H](C=O)NC(=O)[C@H](CC(C)C)NC(=O)[C@H](CC(C)C)NC(=O)OCc1ccccc1 in the same assay as above.
Outline: as §1
RRP36 (UniProt Q96EU6) was tested, and the log2 fold change was inactive: 0.042. For SCAMP2 (UniProt H3BUB6), the log2 fold change was inactive: 0.192. In the case of SDHD (UniProt O14521), the log2 fold change is reported as inactive: -0.144. For SCG3 (UniProt Q8WXD2), the log2 fold change was inactive: 0.038. SCYL3 isoform 2 (UniProt Q8IZE3) was tested, and the log2 fold change was inactive: -0.002. In the case of SCAMP2 (UniProt O15127), the log2 fold change is reported as inactive: 0.036. For SDHB, A0A087WXX8, the log2 fold change was inactive: -0.104. RTF2 (UniProt Q9BY42) was tested, and the log2 fold change was inactive: 0.098. For RSRC2 (UniProt Q7L4I2), the log2 fold change was inactive: -0.026. In the case of SCAI isoform 2 (UniProt Q8N9R8), the log2 fold change is reported as inactive: 0.055. For SCGB1D2 (UniProt O95969), the log2 fold change was inactive: -0.304. In the case of RUNX1 isoform 8 (UniProt Q01196), the log2 fold change is reported as inactive: 0.082. In the case of SEC22A (UniProt Q96IW7), the log2 fold change is reported as inactive: 0.034. For S100A4 (UniProt P26447), the log2 fold change was inactive: -0.019. For SACM1L (UniProt Q9NTJ5), the log2 fold change was inactive: -0.01. For RSF1 (UniProt Q96T23), the log2 fold change was inactive: -0.058. With SAMD4B (UniProt Q5PRF9) the log2 fold change was inactive: 0.04. In the case of SDHB, A0A087WWT1, the log2 fold change is reported as inactive: 0.14. With RWDD2B (UniProt P57060) the log2 fold change was inactive: 0.045. RSPRY1 (UniProt Q96DX4) was tested, and the log2 fold change was inactive: 0.079. In the case of S100A14 (UniProt Q9HCY8), the log2 fold change is reported as inactive: -0.24. For SC5D (UniProt O75845), the log2 fold change was inactive: -0.01. For RSL24D1 (UniProt Q9UHA3), the log2 fold change was inactive: 0.091. In the case of SDHAF2 (UniProt Q9NX18), the log2 fold change is reported as inactive: 0.084. In the case of RUFY3 isoform 3 (UniProt Q7L099), the log2 fold change is reported as inactive: -0.054. With RTN4 isoform 5 (UniProt Q9NQC3) the log2 fold change was inactive: 0.156.

What follows are targets tested with CC(C)N(C[C@H]1O[C@@H](n2cnc3c(N)ncnc32)[C@H](O)[C@@H]1O)[C@H]1C[C@@H](CCc2nc3cc(C(C)(C)C)ccc3[nH]2)C1 [pinometostat] in the same assay as above.
Outline: as §1
In the case of SCAMP2 (UniProt H3BUB6), the log2 fold change is reported as inactive: 0.053. In the case of SCG3 (UniProt Q8WXD2), the log2 fold change is reported as inactive: -0.139. With SCYL3 isoform 2 (UniProt Q8IZE3) the log2 fold change was inactive: 0.054. For RTF2 (UniProt Q9BY42), the log2 fold change was inactive: -0.059. For SDCCAG8 (UniProt Q86SQ7), the log2 fold change was inactive: 0.01. SDHAF4 (UniProt Q5VUM1) was tested, and the log2 fold change was inactive: -0.082. In the case of RSRC2 (UniProt Q7L4I2), the log2 fold change is reported as inactive: -0.019. For SCAI isoform 2 (UniProt Q8N9R8), the log2 fold change was inactive: -0.042. RUNX1 isoform 8 (UniProt Q01196) was tested, and the log2 fold change was inactive: 0.069. With SEC22A (UniProt Q96IW7) the log2 fold change was inactive: -0.15. For S100A4 (UniProt P26447), the log2 fold change was inactive: -0.074. For SACM1L (UniProt Q9NTJ5), the log2 fold change was inactive: -0.042. In the case of RSF1 (UniProt Q96T23), the log2 fold change is reported as inactive: -0.123. For SAMD4B (UniProt Q5PRF9), the log2 fold change was inactive: 0.051. SAP30 (UniProt O75446) was tested, and the log2 fold change was inactive: 0.111. For SDHB, A0A087WWT1, the log2 fold change was inactive: -0.026. In the case of RWDD2B (UniProt P57060), the log2 fold change is reported as inactive: 0. SCAF4 (UniProt O95104) was tested, and the log2 fold change was inactive: 0.13. RSPRY1 (UniProt Q96DX4) was tested, and the log2 fold change was inactive: -0.048. In the case of SDHAF2 (UniProt Q9NX18), the log2 fold change is reported as inactive: -0.014. In the case of RUFY3 isoform 3 (UniProt Q7L099), the log2 fold change is reported as inactive: 0.035. In the case of RTN4 isoform 5 (UniProt Q9NQC3), the log2 fold change is reported as inactive: -0.065.
